Experimental data published in publication PMC9701752.
These are yes or no findings as the source states them, for the method shown. Some entries that bind do so weakly or less than the wild type.

Target: FLT3 transmembrane domain construct for the AraTM assay (five extracellular residues, putative TMD, 20 cytoplasmic juxtamembrane residues)
Assay: DN-AraTM transcriptional reporter assay; TMD fusions to AraC (FLT3) and to inactive AraC* (competitor) co-expressed with the reporter pAraGFPCDF in AraC-deficient E. coli SB1676, 30 °C; GFP fluorescence at 530 nm over absorbance at 580 nm, normalised to the negative control and to expression (anti-MBP blot); a fall of GFP signal means association of the competitor with FLT3-AraC

Binder: QDNISFYATIGVCLLFIVVLTLLICHKYKKQFRYESQLQMVQVTG (domain or fragment)
- binding: binds
